# Test results: the supplement of paper PMC6411743
# ± gives the standard deviation of the averaged measurements. The list shows a part of the results.
# Biological target: T1, UniProt O00410 and related entries
# T1 sequence (whole entry): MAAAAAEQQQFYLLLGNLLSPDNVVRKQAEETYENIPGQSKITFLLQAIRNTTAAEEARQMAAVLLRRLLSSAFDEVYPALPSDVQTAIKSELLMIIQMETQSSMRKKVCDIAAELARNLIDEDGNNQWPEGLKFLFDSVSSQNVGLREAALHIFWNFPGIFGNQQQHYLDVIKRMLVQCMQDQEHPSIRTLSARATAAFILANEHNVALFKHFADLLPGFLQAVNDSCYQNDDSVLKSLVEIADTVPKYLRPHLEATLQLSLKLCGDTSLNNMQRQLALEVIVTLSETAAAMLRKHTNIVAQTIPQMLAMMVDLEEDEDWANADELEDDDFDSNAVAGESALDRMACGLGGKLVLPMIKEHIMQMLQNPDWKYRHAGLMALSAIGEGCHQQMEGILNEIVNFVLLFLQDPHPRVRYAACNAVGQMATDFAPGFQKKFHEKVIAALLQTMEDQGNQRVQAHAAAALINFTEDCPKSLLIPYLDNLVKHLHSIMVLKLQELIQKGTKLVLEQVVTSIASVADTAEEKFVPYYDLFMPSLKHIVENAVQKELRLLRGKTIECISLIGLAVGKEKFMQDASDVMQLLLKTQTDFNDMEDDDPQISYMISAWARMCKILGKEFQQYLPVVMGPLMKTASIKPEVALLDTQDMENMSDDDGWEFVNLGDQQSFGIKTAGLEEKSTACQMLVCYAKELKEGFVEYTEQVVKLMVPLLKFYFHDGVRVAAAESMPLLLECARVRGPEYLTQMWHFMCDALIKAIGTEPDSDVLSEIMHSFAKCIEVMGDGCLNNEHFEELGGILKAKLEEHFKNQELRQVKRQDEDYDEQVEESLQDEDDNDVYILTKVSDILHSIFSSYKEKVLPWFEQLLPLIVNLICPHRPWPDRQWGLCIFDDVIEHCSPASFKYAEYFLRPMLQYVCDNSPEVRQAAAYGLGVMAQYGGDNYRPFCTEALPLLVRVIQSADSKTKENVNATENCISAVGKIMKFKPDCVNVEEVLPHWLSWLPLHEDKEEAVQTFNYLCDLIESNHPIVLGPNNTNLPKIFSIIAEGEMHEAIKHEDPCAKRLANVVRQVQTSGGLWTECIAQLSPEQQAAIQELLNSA
# Test: NP40-soluble protein abundance relative to vehicle (solubility fold change) (ratio); higher = more soluble protein in presence of GTP
# Method: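 Solubility proteome profiling in Jurkat crude lysate. Lysate was treated with Mg-GTP (0.1-10 mM) for 10 min at room temperature and 3 min at 37 °C, then solubilised with 0.8% NP40 and benzonase, followed by ultracentrifugation. Proteins were quantified by TMT10 LC-MS/MS; the value is the NP40-soluble abundance relative to the NP40-processed vehicle, from 3 independent experiments.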
structure (smiles),measurement,setting,value
Nc1nc2c(ncn2[C@@H]2O[C@H](COP(=O)(O)OP(=O)(O)OP(=O)(O)O)[C@@H](O)[C@H]2O)c(=O)[nH]1 [guanosine triphosphate],NP40-soluble protein abundance,concentration: 0.1mM,0.953 ± 0.026
same,NP40-soluble protein abundance,concentration: 0.5mM,0.964 ± 0.012
same,NP40-soluble protein abundance,concentration: 1mM,0.925 ± 0.022
same,NP40-soluble protein abundance,concentration: 2mM,0.9224 ± 0.0069
same,NP40-soluble protein abundance,concentration: 4mM,0.908 ± 0.01
same,NP40-soluble protein abundance,concentration: 6mM,0.9159 ± 0.0054
same,NP40-soluble protein abundance,concentration: 8mM,0.904 ± 0.043
same,NP40-soluble protein abundance,concentration: 10mM,0.912 ± 0.0063
